Assay results published in PMC5393187.
No constants are given. Whether binding was seen depends on the method and setting. Binding seen in cells or lysates may run through a third protein. Here binding means that the protein was enriched with, or labelled near, the bait; the list need not be complete.

Sequences of proteins named here, by UniProt entry; tags and fusion partners are left off.
UniProt P53327: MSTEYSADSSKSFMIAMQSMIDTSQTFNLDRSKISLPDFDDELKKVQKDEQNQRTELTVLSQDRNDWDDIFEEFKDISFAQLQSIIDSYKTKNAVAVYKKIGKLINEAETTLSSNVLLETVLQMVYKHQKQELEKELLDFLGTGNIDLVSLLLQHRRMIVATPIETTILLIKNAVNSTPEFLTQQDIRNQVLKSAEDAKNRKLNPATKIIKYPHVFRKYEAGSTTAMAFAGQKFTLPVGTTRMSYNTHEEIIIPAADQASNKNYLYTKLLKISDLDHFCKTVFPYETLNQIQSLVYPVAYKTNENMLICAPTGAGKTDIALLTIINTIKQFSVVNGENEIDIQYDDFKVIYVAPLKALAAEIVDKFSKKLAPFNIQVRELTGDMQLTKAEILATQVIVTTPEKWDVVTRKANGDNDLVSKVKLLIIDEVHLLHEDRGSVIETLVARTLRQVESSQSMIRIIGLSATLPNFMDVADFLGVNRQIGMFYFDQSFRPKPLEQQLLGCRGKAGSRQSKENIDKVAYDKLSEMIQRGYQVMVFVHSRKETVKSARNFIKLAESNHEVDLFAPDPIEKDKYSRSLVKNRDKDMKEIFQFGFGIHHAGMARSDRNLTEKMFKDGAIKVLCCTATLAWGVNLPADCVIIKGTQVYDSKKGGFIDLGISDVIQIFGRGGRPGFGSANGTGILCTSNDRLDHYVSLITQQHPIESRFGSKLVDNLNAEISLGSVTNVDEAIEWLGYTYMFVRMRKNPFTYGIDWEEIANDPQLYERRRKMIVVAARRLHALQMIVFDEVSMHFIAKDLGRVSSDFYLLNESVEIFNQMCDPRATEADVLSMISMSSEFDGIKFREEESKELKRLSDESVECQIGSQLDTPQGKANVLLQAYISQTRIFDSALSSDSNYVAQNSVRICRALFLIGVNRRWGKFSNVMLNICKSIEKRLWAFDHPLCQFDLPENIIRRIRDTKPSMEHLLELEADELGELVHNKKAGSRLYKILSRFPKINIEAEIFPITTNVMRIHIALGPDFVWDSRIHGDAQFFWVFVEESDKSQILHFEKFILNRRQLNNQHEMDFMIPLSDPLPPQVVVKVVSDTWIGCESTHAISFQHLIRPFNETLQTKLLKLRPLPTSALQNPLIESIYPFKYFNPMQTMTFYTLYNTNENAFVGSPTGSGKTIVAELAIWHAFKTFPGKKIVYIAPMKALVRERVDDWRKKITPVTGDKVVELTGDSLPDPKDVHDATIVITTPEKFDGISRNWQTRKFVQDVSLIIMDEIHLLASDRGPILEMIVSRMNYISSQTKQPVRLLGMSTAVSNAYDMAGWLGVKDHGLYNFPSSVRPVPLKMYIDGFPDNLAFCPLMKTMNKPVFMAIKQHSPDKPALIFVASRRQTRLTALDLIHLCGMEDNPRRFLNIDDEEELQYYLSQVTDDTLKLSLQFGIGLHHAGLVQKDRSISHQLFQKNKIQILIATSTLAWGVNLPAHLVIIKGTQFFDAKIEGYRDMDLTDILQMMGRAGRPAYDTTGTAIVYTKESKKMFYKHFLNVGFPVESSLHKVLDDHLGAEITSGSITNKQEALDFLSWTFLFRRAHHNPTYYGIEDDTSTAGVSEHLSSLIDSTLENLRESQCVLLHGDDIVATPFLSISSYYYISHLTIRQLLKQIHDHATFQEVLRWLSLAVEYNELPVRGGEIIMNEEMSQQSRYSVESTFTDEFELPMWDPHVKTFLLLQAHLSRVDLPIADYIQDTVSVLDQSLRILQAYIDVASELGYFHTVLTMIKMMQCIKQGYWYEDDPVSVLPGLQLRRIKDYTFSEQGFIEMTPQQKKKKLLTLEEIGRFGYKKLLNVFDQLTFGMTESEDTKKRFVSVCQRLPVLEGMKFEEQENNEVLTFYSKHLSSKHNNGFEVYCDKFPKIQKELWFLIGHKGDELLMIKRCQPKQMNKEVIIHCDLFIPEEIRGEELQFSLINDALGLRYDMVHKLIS
UniProt P12385: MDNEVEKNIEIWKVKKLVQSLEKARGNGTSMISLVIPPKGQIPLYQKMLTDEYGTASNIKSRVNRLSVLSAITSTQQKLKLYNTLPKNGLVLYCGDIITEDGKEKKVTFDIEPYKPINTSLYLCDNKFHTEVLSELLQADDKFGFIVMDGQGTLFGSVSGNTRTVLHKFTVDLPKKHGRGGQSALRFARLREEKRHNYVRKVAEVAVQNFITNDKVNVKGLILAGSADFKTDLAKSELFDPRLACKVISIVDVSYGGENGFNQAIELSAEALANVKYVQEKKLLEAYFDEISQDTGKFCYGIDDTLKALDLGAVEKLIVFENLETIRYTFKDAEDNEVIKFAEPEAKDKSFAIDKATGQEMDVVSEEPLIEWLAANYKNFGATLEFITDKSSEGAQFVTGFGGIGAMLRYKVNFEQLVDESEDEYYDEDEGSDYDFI
UniProt Q03195: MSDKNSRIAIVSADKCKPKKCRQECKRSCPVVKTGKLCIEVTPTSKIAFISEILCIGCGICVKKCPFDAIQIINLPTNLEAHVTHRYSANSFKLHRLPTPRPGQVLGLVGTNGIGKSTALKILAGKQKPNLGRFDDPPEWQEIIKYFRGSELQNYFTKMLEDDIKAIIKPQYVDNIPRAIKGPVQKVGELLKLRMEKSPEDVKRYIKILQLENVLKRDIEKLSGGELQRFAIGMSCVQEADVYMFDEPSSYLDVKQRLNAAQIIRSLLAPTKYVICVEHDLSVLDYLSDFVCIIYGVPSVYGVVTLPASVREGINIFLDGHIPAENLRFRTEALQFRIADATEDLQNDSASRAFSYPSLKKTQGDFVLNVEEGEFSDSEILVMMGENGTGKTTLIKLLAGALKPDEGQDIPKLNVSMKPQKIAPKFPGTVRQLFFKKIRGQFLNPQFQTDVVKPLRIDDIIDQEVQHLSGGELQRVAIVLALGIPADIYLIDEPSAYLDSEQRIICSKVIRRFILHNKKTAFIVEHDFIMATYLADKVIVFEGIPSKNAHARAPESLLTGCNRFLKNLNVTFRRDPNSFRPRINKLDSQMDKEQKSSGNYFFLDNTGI

T1: Hel2 (S. cerevisiae) (UniProt Q05580)
T1 sequence: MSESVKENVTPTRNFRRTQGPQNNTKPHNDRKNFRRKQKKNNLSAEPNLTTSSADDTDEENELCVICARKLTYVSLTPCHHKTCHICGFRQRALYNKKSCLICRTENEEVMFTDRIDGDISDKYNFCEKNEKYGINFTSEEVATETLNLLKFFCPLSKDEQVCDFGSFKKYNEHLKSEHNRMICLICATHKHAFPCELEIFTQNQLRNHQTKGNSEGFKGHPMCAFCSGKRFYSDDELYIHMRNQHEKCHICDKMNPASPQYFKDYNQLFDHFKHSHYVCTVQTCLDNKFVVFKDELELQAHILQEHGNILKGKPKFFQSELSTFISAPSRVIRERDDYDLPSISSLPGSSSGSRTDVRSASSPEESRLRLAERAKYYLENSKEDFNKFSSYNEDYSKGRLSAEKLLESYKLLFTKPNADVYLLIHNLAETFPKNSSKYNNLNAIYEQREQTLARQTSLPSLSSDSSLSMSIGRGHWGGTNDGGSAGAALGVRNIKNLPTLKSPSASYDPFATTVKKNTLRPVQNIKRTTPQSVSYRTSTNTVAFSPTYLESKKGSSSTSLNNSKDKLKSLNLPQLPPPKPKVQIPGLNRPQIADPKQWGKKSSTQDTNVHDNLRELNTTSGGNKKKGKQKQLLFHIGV

B1: Cue3 (protein, UniProt P53137 1-624)
chain: MLSRYNRVIEINGGNADISLPIVKFPPFKLRAQLIEKDPVVWLHLIETYVTYFEYLMQGANVELLDESTLDHLRLFLRTYLHEIADEEGKLLSLGINHDVSEQLYLLKGWIFSLIKKCGLLHLQIFGDSLWNLIKVYVRRNPDSIRGLIDGSLKPRINTQRVQLDKSYQVQQHLKQLIESGKFKRIDLRCVEDLLSAKSMQPNKFAENFFTANWIEILEALWAKGQGRGHKEARELIIISLFSVSADRLLKITKELGISNFETLALYPLLGTMLINEGVHKRLPDLKSKLLFLNLGGLSMDEGDHMSYPTSSGTEVNEEQLSALMELFPQFSKYQLSQTLLAYDNNIELVTNKIFEDPTIIEAFSREPAEEEVEPVSDGDNASFTEELSILDRGDSSKNKELDKKIISEGVPDELRNKTLTRALKLLYEADEDERDDTYDEADVNRSDPSKRIGLQEDEESYDTKDDSNEVRQDHNYHIVEAYLWNLLKEDPKLFERSKRGTKVRKTMKEMTSWSDEKIEGWCRMLERSPTRARLLEKKFMFKGNSKTGKTSYVHNRDSQNDGNVVKEQAKQKKSENIKKHEPQSTEQKKRQHAKNEKRKGARANHNRKKGHDKKLARAGNNAI
B2: Ykr023w (protein, UniProt P36119 1-530)
chain: MTRKQAIDYAIKQVPQILPLEESDVKALCEQVLSTSSDDPEQIASKFLEFLGHEDLSFEFVMKFNELLNQNDKKEEKKTKNVHLEHTAPTSWKNESKQPTNNYINKKGDEKPKKLKDEKKSSTTRPTVQPSNQSTQSNPIKEKKEHRSKGKLQSLQEIDEAIKMLELRDSGSSKNCNCQGTRHPVFDIAPNCLHCGKVVCVIEGLNKGKCGHCHEQLISDNERTQMVEILNQEKNELNGSSSSLSNASNGANVPKKKTKTYKITSGMGKNLFAEQDKLFDFIERKRERERKRNEVLKLQEEKEESEAKERQASEHDHKAEENPELLAAQERLDRLLYFQDTSAERTKIIDNASDFDMNQEVGLWGSARERALALKKQQRNLRKWEKVEKERNGRREKYVVSMNIGSNGKVTMTEVPKDTENVIAGSDDDISDISDEEDISDLKHIHALKSEINTTKSLENLHLQSKAWDYERDKKQFDRPTYVKKNSDTAQQNRKTEEKAHDMQAYDLKSRVQVDQNADASVEQNILAVL

Key:
Hel2 (S. cerevisiae) = target: T1, Hel2 (S. cerevisiae); assay: affinity purification with mass spectrometry; IPs of endogenously tagged Hel2 and Slh1 from cryo-ground yeast extract on Anti-FLAG M2 Affinity Resin, 1 h, 4°C, IP buffer (20 mM HEPES K pH 7.4, 100 mM KOAc, 10 mM MgCl2); eluted with 1 mg/mL 3xFlag peptide; enrichment against a nontagged control IP, two biological replicates
Slh1 (S. cerevisiae) = Slh1 (S. cerevisiae) (UniProt P53327); assay: as above

Molecule	binding (Hel2 (S. cerevisiae))	binding (Slh1 (S. cerevisiae))
eRF1(Sup45) (from UniProt P12385 1-437)	binds	binds
Rli1 (from UniProt Q03195 1-608)	binds	binds
B1	binds	binds
B2	binds	binds
